In the supplement of paper PMC8007513 one finds growth data, which are given here for 38 compounds.

Each structure is given as a SMILES string. The list shows a part of the results. Most values come without repeats; read them as rough.

The subject of the experiment is Saccharomyces cerevisiae BY4743. The experiment in a line: growth (OD600) relative to untreated control; higher = less growth inhibition. The settings on record: compound concentration: 133 uM; 20 h. Here is the method: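 NMCCC compounds (133 uM, no IPBC) tested alone against Saccharomyces cerevisiae BY4743 in YPD, 96-well plates, starting OD600 ~0.1. Growth was read as OD600 at 20 h and expressed as % of the untreated control. Single pass.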
In the case of `Cc1cc(N2CCCC2)ccc1NC(=O)C(NS(=O)(=O)/C=C/c1ccccc1)C(C)C` (stereo not drawn), the growth amounted to 105%.
In turn, `CCN(CC)[S](=O)(=O)C1=CC=C(NC(=O)N\C2=C\N(C)C(=O)C3=CC=CC=C23)C=C1` showed a growth of 104%.
For `COC1=CC(=CC(=C1OC)Br)C\2\C(=C(\N)O\C3=C2C(=O)CCC3)C#N` (stereo not drawn), the growth amounted to 91%.
For `COc1cc(OC)c(NS(=O)(=O)c2ccc3c(c2)CCCC(=O)N3)cc1Cl`, the growth is 102%.
The same measure for `CC(C)(C)c1csc(NC(=O)c2csc(-c3ccsc3)n2)n1`: 76.3%; for `COC1=CC=C(N[S](=O)(=O)C2=CC=C3\N=C/N[S](=O)(=O)C3=C2)C=C1`: 86.9%.
In the case of `COc1ccccc1C(=O)NCCc1nc2cc(NC(=O)CC(C)C)ccc2n1C`, the growth turned out to be 103%.
Next, `COc1ccc(C2N(c3ccc(Cl)cc3)C(=O)C(C)S2(=O)=O)cc1` (stereo not drawn): 101%; `CCCCn1c(=O)[nH]c2nc3cc(NC(C)=O)ccc3nc2c1=O`: 103%.
Next, `Cc1ccc(C(NS(=O)(=O)c2ccc(S(C)(=O)=O)cc2)c2cccs2)cc1` (stereo not drawn): 87%.
Next, `CCN(CC)\C1=C(/C(=O)N2CCOCC2)[S](=O)(=O)C3=CC=CC=C13`: 91.4%.
`COc1ccc(OC)c(C(C)NC(=O)C2CCCCN2S(=O)(=O)c2ccc(C(C)=O)cc2)c1` (stereo not drawn) had a growth of 70%.
Next, `CC(C)(C)C1=CSC(=N1)NC(=O)\C2=N\N(CC3=CC=C(F)C=C3)C(=O)CC2`: 85.5%; `CCCN(CC(=O)NC1=CC=CC=C1OC)C(=O)\C2=C\OCCO2`: 110%.
Next, `CCCNC(=O)c1cc(N(C)S(=O)(=O)c2ccc(C)cc2)ccn1`: 112%; `FC1=CC=CC(=C1)COC2=CC=C(NC(=O)CN3\C=C/C=C\C3=O)C=C2Cl`: 94%; `CO\C1=C\N(CC(=O)NCC2=CC=C(F)C=C2)\C(=C/C1=O)CN3CCOCC3`: 101%.
Consider `O=C(Nc1ccccc1OC(F)F)c1ccc(NC2CC2)nc1`, for which the growth worked out at 98.7%.
Next, `COC1=CC=C(NC(=O)\C2=C(/C)C(=O)OC23CCC(C)CC3)C=C1Cl` (stereo not drawn): 106%; `Nc1cc(C2CC2)nn1Cc1ccccc1`: 101%; `CCC(=O)Nc1nc2ccc(CCC(=O)Nc3c(Cl)cc(OC)cc3OC)cc2s1`: 102%.
Next, `COc1ccccc1N(CCC(N)=O)C(=O)C1COc2ccccc2O1` (stereo not drawn): 104%; `CC1CC(=O)Nc2cc(S(=O)(=O)N(C)C3CCCCC3)ccc2S1` (stereo not drawn): 105%.
Compound `CC(C)c1nc(SC(C(=O)Nc2ccc(F)cc2)C(C)C)n[nH]1` (stereo not drawn) returned a growth of 98.9%.
Compound `COc1ccc(-c2onc(C)c2C)cc1S(=O)(=O)N(C)C(C)CCc1ccco1` (stereo not drawn) gave a growth of 70.7%.
Next, `Cc1cc(SCC(=O)OC(C)C(=O)c2ccc(NS(C)(=O)=O)cc2)nc2ccccc12` (stereo not drawn): 108%; `CC(C)n1nnnc1SCc1nc(-c2ccccc2Cl)no1`: 94.4%.
`CN1\C=C(/C(=O)N(C)C1=O)[S](=O)(=O)NC2(C)CC[S](=O)(=O)C2` (stereo not drawn) displayed a growth of 117%.
The same measure for `COC(=O)CN(c1cc(C)cc(C)c1)S(=O)(=O)c1cc2c(cc1C)N(C(C)=O)CCO2`: 108%; for `CCn1c(SCC(=O)Nc2cccc(C#N)c2)nnc1N1CCOCC1`: 82.9%.
`COc1cc(NC(=O)c2cccnc2Sc2ccccc2)cc(OC)c1`: the growth was determined as 102%.
Next, `CC(C)C[C@@H](C(=O)Nc1cccnc1)N1Cc2ccccc2C1=O`: 106%.
The compound `CC1(CC[S](=O)(=O)C1)NC(=O)C/2=N/N(CC3=CC=CC=C3)C(=O)/C=C2` (stereo not drawn) returned a growth of 95.1%.
Next, `COC(CN(C)C(=O)c1cc2c(C)nc3ccccc3c2o1)OC`: 91.3%; `CN(Cc1ccc(Cl)s1)C(=O)CSc1n[nH]c(-c2cccs2)n1`: 101%.
`CCOc1ccc(CNC(=O)CC(c2ccccc2C)n2cccc2)cc1OC` (stereo not drawn) had a growth of 106%.
`CCOc1ccc(N2C(=O)CCS2(=O)=O)cc1S(=O)(=O)N(Cc1ccccc1)C(C)C`: the growth was determined as 83.4%.
Next, `CC(C)c1ccc(C(=O)Cn2cnc(C#N)n2)c(C(C)C)c1`: 102%.
